In PMC4764579, “Structural insights into the mechanism of activation of the TRPV1 channel by a membrane-bound tarantula toxin” (eLife, 2016):
No constants are given. Whether binding was seen depends on the method and setting. Some results given as binding are weak or reduced against the parent protein; the word gives no strength.

Protein sequences, listed by entry. Tags and fused reporters are not part of them. Lines headed by an entry give the natural chain unless they say otherwise; changes in a name come on top. Chains listed by the source or under a name are the forms on record and can include a tag or linker. Residues count along the entry.
TRPV1 construct used for cryo-EM (pore turret residues 604-626 deleted) (O35433, form named): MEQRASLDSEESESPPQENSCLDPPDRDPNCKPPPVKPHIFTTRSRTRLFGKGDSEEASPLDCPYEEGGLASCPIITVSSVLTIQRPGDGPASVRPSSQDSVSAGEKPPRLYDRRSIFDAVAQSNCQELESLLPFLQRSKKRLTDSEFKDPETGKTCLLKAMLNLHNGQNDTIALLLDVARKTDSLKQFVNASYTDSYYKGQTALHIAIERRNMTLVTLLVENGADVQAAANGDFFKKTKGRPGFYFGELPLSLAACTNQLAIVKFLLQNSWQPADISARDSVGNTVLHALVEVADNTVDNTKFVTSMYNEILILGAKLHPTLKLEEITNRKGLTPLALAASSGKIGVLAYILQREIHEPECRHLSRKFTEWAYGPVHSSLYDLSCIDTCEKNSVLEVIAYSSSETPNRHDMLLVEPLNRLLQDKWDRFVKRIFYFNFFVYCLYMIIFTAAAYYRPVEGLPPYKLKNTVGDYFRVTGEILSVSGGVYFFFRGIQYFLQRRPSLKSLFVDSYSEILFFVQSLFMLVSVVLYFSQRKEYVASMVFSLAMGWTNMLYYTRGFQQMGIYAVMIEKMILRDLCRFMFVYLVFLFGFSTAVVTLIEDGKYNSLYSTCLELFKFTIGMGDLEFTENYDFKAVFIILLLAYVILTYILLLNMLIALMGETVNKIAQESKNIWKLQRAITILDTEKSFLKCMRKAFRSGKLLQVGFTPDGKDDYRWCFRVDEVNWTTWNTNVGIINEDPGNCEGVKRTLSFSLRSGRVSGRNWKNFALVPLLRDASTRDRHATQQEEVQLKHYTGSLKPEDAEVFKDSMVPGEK

Molecular target: TRPV1 construct used for cryo-EM (pore turret residues 604-626 deleted) (rat) (UniProt O35433)
Assay: cryo-EM structure; both purified

B1: double-knot toxin (DkTx) as bound to TRPV1 in the cryo-EM sample (protein)
chain: DCAKEGEVCSWGKKCCDLDNFYCPMEFIPHCKKYKPYVPVTTNCAKEGEVCGWGSKCCHGLDCPLAFIPYCEKYR
B1 was tested, and the binding was “binds”.
